The results in this text go back to article PMC6312196 (ChemMedChem, 2018).

The subject of one assay is KCL22. The assay can be described thus: Cellular proliferation assay. The conditions noted are these: Homo sapiens, KCL-22, 72 h, read-out: IC50 (mean ±SD) KCL22. It counts as cell-based.
For another assay, the system named is K562. The assay can be described thus: Cellular proliferation assay. The conditions noted are these: Homo sapiens, K562, 72 h, read-out: IC50 (mean ±SD) K562. It is filed as cell-based.

Regarding `Cc1ccc(NC(=O)c2ccc(CN3CCN(C)CC3)cc2)cc1Nc1nccc(-c2cccnc2)n1` [Imatinib, reference compound], the results for the IC50 in the assay on KCL22 and in the assay with K562 were 83.7 ± 0.7 nM and 88.6 ± 0.6 nM, respectively.
